Experimental data as given in PubChem BioAssay AID540276 (National Center for Advancing Translational Sciences (NCATS), 2011).
Among all 300,000 compounds or so, about 5,400 (1.8%) were called active. Inconclusive results, whose numbers are uncertain, are shown with a selection of clear calls. The call rests on the fitted dose curve; tested in HEK293 cells. A potency beside an inconclusive call is a rough fit, not a confirmed value.

Assay: qHTS for inhibitors of binding or entry into cells for Marburg Virus
Conditions: Marburg virus pseudotyped entry inhibition, cell reporter; activity change, negative = inhibition: at 37.8 µM (top of the series) unless noted
On the % scale 0 is the no-effect control and ±100 the full control effect; potency means the concentration at half of the fitted maximal effect.

Which Potency does the source give for `O=C(O)c1cc(NCc2cccs2)ccc1N1CCOCC1` here?
Its Potency is inconclusive: 4.61 µM [inhibitor, single point].

Which Potency does the source give for `CCN1CCC2(CC1)N=C(c1ccc(F)cc1)C(=S)N2C(=O)c1ccc(C)cc1` here?
The Potency was inconclusive: 12.6 µM [inhibitor, single point].

With `Cc1sc2nc(C3CC3)nc(N3CCN(C(=O)c4ccc(Cl)cc4)CC3)c2c1C` as the compound, how does the Potency read?
Its Potency is inconclusive: 7.94 µM [inhibitor, partial curve].

For `CC(C)OCCCn1c(NN)nc2ccccc2c1=O`, which “activity change, negative = inhibition” value is on record?
The value was inactive: 6.15% [at 46.1 µM].

For `CCCn1cnc2c(cnn2-c2ccc(F)cc2)c1=O`, which “activity change, negative = inhibition” value is on record?
The value was inactive: -0.123%.

With `CC1=CC[C@@H](COc2ccccc2)O[C@@]2(C1)C(=O)N(CC1CC1)c1ccccc12` as the compound, how does the “activity change, negative = inhibition” value read?
The value was inactive: 20% [at 14.2 µM].

Which Potency does the source give for `Cc1ccn2cc(-c3ccc(NC(=O)c4ccco4)cc3)nc2c1` here?
Its Potency is inconclusive: 16.4 µM [inhibitor, single point].

Which “activity change, negative = inhibition” value does the source give for `Nc1nonc1OCCCCOc1nonc1N` here?
The value was inactive: 27.2% [at 46.1 µM].

With `COCCN(Cc1cc2cc3c(cc2nc1Cl)OCO3)C(=O)Nc1ccccc1OC` as the compound, how does the Potency read?
The Potency was inconclusive: 4.61 µM [inhibitor, partial curve, poor fit].

With `Cc1cc(C)c2oc(C(=O)Nc3ccc(S(=O)(=O)N4CCCC(C)C4)cc3)cc(=O)c2c1` (centres undefined) as the compound, how does the Potency read?
The Potency was inconclusive: 1.12 µM [inhibitor, partial curve, poor fit].

With `N#C/C(=C\c1ccc(N2CCOCC2)o1)C(=O)NC1CCCCC1` as the compound, how does the Potency read?
Its Potency is inconclusive: 35.5 µM [activator, partial curve, poor fit].

With `CC1CCCN(CCCNC(=O)C2CC(=O)N(c3ccc(F)c(Cl)c3)C2)C1` (centres undefined) as the compound, how does the “activity change, negative = inhibition” value read?
The value was inactive: 3.81%.

Which “activity change, negative = inhibition” value does the source give for `CNc1cc(CSc2ccc(Cl)cc2)nc(C)n1` here?
The value was inactive: -6.93% [at 46.1 µM].

With `COc1ccccc1N1CCN(C(=O)c2cn(C)c3ccc(S(=O)(=O)N(C)C4CCCCC4)cc3c2=O)CC1` as the compound, how does the “activity change, negative = inhibition” value read?
Its value is inactive: -0.737% [at 46.1 µM].

Which Potency does the source give for `Cc1cccn2c(=O)c3cc(C(=O)NCc4ccco4)c(=N)n(C(C)C)c3nc12` here?
Its Potency is inconclusive: 8.2 µM [inhibitor, partial curve, poor fit].

Which “activity change, negative = inhibition” value does the source give for `COCCN(C(=O)COC(=O)CCSc1ccc(F)cc1)c1c(N)n(Cc2ccccc2)c(=O)[nH]c1=O` here?
Its value is inactive: 1.58%.

Which Potency does the source give for `CC(C)(C)C1COc2ccccc2N1C(=O)c1cccc(Cl)c1` (centres undefined) here?
Its Potency is inconclusive: 1.26 µM [inhibitor, single point].

With `CCOc1ccc(-c2nnn(CC(=O)Nc3cc(OC)ccc3OC)n2)cc1OCC` as the compound, how does the “activity change, negative = inhibition” value read?
Its value is inactive: 2.99%.

With `CC(=O)N(C(C)=O)c1nc(-c2ccccc2)cn1/N=C/c1ccccc1` as the compound, how does the Potency read?
The Potency was inconclusive: 22.4 µM [inhibitor, single point].

For `COc1ccccc1NS(=O)(=O)c1cc(C(=O)NCCC(C)C)ccc1F`, which Potency is on record?
Its Potency is inconclusive: 22.4 µM [inhibitor, single point].

Which Potency does the source give for `CCOC(=O)/C(C#N)=C/c1c(N2CCN(c3ccc(OC)cc3)CC2)nc2c(C)cccn2c1=O` here?
The Potency was inconclusive: 1.12 µM [inhibitor, full curve, poor fit].

Which Potency does the source give for `O=C1C(=O)N(Cc2cccnc2)C(c2ccccn2)/C1=C(/O)c1ccc(Br)cc1` (centres undefined) here?
The Potency was “inactive”.

With `O=C(/C=C/c1ccccc1)CCN1CCCCC1` as the compound, how does the Potency read?
Its Potency is inconclusive: 11.2 µM [inhibitor, partial curve, poor fit].

For `O=C(O)CCC(=O)CCC(=O)c1ccc(Cl)cc1`, which “activity change, negative = inhibition” value is on record?
Its value is inactive: -14.9%.

Which Potency does the source give for `COC(=O)C(C)Sc1nc2c(cnn2-c2ccc(F)cc2)c(=O)[nH]1` (centres undefined) here?
The Potency was inconclusive: 11.2 µM [activator, partial curve, poor fit].

With `Cc1sc2ncnc(N3CCC(C(=O)NNC(=O)c4ccccc4Cl)CC3)c2c1C` as the compound, how does the Potency read?
The Potency was inconclusive: 22.4 µM [inhibitor, single point].

Which Potency does the source give for `O=C(CCS(=O)(=O)c1ccccc1)Nc1ccccc1-c1nc2ccccc2s1` here?
The Potency was inconclusive: 22.4 µM [inhibitor, single point].

Which Potency does the source give for `Cc1ccc(-c2nnn(CC(=O)NCCc3ccc4c(c3)OCO4)n2)cc1` here?
Its Potency is inconclusive: 2 µM [inhibitor, partial curve, poor fit].

Which Potency does the source give for `CCOc1ccc(NC(=O)c2c(C)nn(Cc3ccccc3)c2Cl)cc1` here?
The Potency was inconclusive: 11.2 µM [activator, partial curve].

For `CCOc1cc(C2CC(=O)Nc3cc4c(cc32)OCCO4)ccc1O` (centres undefined), which Potency is on record?
The Potency was inconclusive: 6.31 µM [inhibitor, partial curve, poor fit].

With `CCc1c(C)c(C#N)c2[nH]c3ccccc3n2c1=S` as the compound, how does the “activity change, negative = inhibition” value read?
The value was inactive: 2.12% [at 46.1 µM].

Which “activity change, negative = inhibition” value does the source give for `Cc1ccc(NC(=O)Nc2nc(-c3ccc(C)s3)cs2)cc1` here?
The value was inactive: -0.229%.

With `Cc1ccccc1C(=O)NCc1nnc(SCC(=O)N2c3ccccc3Sc3ccccc32)n1C` as the compound, how does the Potency read?
Its Potency is inconclusive: 9.2 µM [inhibitor, partial curve, poor fit].

For `O=C1CCCN2N=C(SCC(=O)Nc3ccc(Cl)cc3)SC2=N1`, which “activity change, negative = inhibition” value is on record?
The value was inactive: 0.0183% [at 46.1 µM].

For `CCn1cnc2cc(NCc3ccc(Cl)cc3)ccc21`, which Potency is on record?
The Potency was inconclusive: 1.12 µM [activator, partial curve, poor fit].

With `Cc1cc(NC(=O)CSc2ccc3nnc(-c4ccccc4)n3n2)no1` as the compound, how does the “activity change, negative = inhibition” value read?
The value was inactive: -1.22%.

For `COc1ccc(C(C(=O)NC2CCCCC2)N(C(=O)c2cccs2)c2ccc3c(c2)OCO3)cc1` (centres undefined), which Potency is on record?
Its Potency is inconclusive: 10.3 µM [inhibitor, partial curve, poor fit].

Which “activity change, negative = inhibition” value does the source give for `CC(C)OC(=O)CSc1nnc(-c2cnccn2)n1Cc1ccco1` here?
Its value is inactive: 1.71%.

For `COc1ccc(NC(=O)c2ccc(COc3ccccc3Br)o2)cc1OC`, which Potency is on record?
Its Potency is inconclusive: 2.82 µM [inhibitor, full curve].

For `Cc1c(CCOC(=O)c2cc([N+](=O)[O-])cc([N+](=O)[O-])c2)sc[n+]1CC(=O)c1ccc(Br)cc1`, which Potency is on record?
The Potency was inconclusive: 35.5 µM [inhibitor, single point].

With `COc1ccc(Br)cc1C1Nc2ccccc2C(=O)N1NC(=O)c1ccncc1` (centres undefined) as the compound, how does the Potency read?
Its Potency is inconclusive: 35.5 µM [inhibitor, single point].

With `CCOC(=O)c1c(C)c(C(=O)NCc2ccc(OC)cc2)c(C)n1CC` as the compound, how does the Potency read?
Its Potency is inconclusive: 5.01 µM [inhibitor, partial curve, poor fit].

For `COc1ccccc1OCCSc1nc2ccc([N+](=O)[O-])cc2s1`, which “activity change, negative = inhibition” value is on record?
The value was inactive: 23.5%.

For `Cc1cccc(-c2nnc(SC(C)C(=O)N3CCOCC3)o2)c1` (centres undefined), which Potency is on record?
The Potency was inconclusive: 1.78 µM [activator, partial curve, poor fit].

Which Potency does the source give for `COc1ccc(Cc2nnc3sc(SCC(=O)Nc4ccccc4)nn3c2=O)cc1OC` here?
The Potency was inconclusive: 12.6 µM [inhibitor, partial curve, poor fit].

For `Cc1ccc(NC(=O)CSc2nnc(-c3ccccc3Br)o2)cc1C`, which Potency is on record?
The Potency was inconclusive: 17.8 µM [activator, partial curve, poor fit].

With `CCOc1ccc(S(=O)(=O)N(CC(=O)O)c2ccccc2)cc1` as the compound, how does the Potency read?
Its Potency is inconclusive: 1.03 µM [activator, full curve, poor fit].

With `O=C(NC(=S)Nc1cccc(O)c1)c1cncc(Br)c1` as the compound, how does the “activity change, negative = inhibition” value read?
Its value is inactive: 14.5% [at 46.1 µM].

For `Cc1sc(NC(=O)c2ccccc2)c(C(=O)NCCN(C)C)c1C`, which Potency is on record?
Its Potency is active: 20.6 µM.

With `CN(C)CCn1c(=O)n(Cc2ccco2)c(=O)c2c3c(sc21)CCCCC3` as the compound, how does the Potency read?
The Potency was inconclusive: 29.1 µM [inhibitor, single point].

Which Potency does the source give for `CCOC(=O)c1cccc(NC(=S)N2CCN(c3ncc4c(=O)c(C(=O)O)cn(CC)c4n3)CC2)c1` here?
The Potency was inconclusive: 5.62 µM [activator, single point].

With `CC(NC(=O)c1cnc2ccccc2n1)c1ccccc1` (centres undefined) as the compound, how does the Potency read?
The Potency was inconclusive: 14.1 µM [activator, partial curve, poor fit].

With `CC1CCC(NC(=O)COC(=O)C2CC3CCCC(C2)C3=O)CC1` (centres undefined) as the compound, how does the Potency read?
The Potency was inconclusive: 35.5 µM [activator, single point].

With `O=C(CN1C(=O)C(=O)N(C2CCCC2)C1=O)Nc1ccc(F)cc1F` as the compound, how does the Potency read?
The Potency was inconclusive: 3.98 µM [activator, single point].

For `COc1ccc(CC2(CO)CCN(Cc3ccc4nsnc4c3)CC2)cc1`, which Potency is on record?
Its Potency is inconclusive: 3.55 µM [inhibitor, single point].

With `O=C(Nc1ccccc1)Nn1cnnc1` as the compound, how does the “activity change, negative = inhibition” value read?
Its value is inactive: -2.74% [at 46.1 µM].

With `COc1ccc(OC(=O)c2cccc([N+](=O)[O-])c2)c(C(=O)/C=C/c2cccs2)c1` as the compound, how does the “activity change, negative = inhibition” value read?
Its value is inactive: -10.3% [at 46.1 µM].

For `COc1cccc(C(=O)NC2CCCc3ccccc32)c1` (centres undefined), which “activity change, negative = inhibition” value is on record?
Its value is inactive: -4.55%.

Which “activity change, negative = inhibition” value does the source give for `CCc1ccc(NC2=NCC(c3ccccc3)S2)cc1` (centres undefined) here?
Its value is inactive: -28.9% [at 46.1 µM].

Which Potency does the source give for `CCC1CCCCN1Cc1ccc(OC)c(OC)c1` (centres undefined) here?
The Potency was inconclusive: 0.259 µM [inhibitor, single point].

For `CC[C@H](C)[C@H](NC(=O)OCc1ccccc1)C(=O)OCC(=O)N(C)CC(=O)Nc1ccccc1Cl`, which “activity change, negative = inhibition” value is on record?
The value was inactive: -1.85%.

With `CCCN(CCC)C(=O)Cn1c(=O)n(CCC(=O)NCCc2ccccc2)c(=O)c2ccccc21` as the compound, how does the “activity change, negative = inhibition” value read?
The value was inactive: 1.15%.

For `C[C@@H]1Cc2cc3c(cc2C(c2ccc(N)cc2)=NN1)OCO3`, which Potency is on record?
The Potency was inconclusive: 4.47 µM [inhibitor, full curve, poor fit].

Which “activity change, negative = inhibition” value does the source give for `N#CC1=C(N)N2C(=C(C#N)C13CCCC3)Nc1ccccc12` here?
Its value is inactive: -23.1% [at 46.1 µM].

With `CCOc1ccc(-n2c(=O)c3c(C)c(C)sc3n(CC(=O)NCc3ccco3)c2=O)cc1` as the compound, how does the Potency read?
Its Potency is inconclusive: 29.1 µM [inhibitor, single point].

With `O=C(O)c1ccc(S(=O)(=O)c2ccc3c(c2)C(=O)N(NC(=O)c2ccccc2)C3=O)cc1` as the compound, how does the Potency read?
Its Potency is inconclusive: 4.47 µM [activator, single point].

For `N#CC(C(=O)OCc1ccccc1)c1nc2ccccc2nc1N1CCOCC1` (centres undefined), which Potency is on record?
Its Potency is inconclusive: 1.46 µM [inhibitor, partial curve, poor fit].

Which Potency does the source give for `Cc1c(C(=O)NCc2ccccn2)sc2nc(-c3ccc(F)cc3)cn12` here?
Its Potency is inconclusive: 1.83 µM [inhibitor, full curve, poor fit].

For `O=S(=O)(N1CCOCC1)N1CCCN(S(=O)(=O)N2CCOCC2)CC1`, which “activity change, negative = inhibition” value is on record?
Its value is inactive: -23.4%.
